Source: patent publication US5773411A (The DuPont Merck Pharmaceutical Company, priority 1994, dated 1998)
HELM strings list residues between dots; [ac] is acetyl, [am] amide, other brackets name non-standard units.

Assay: general procedure: peptide synthesis; Oxime resin (substitution level=0.96 mmol/g); HBTU, TBTU
Conditions: TFA salt; for cyclisation yield: cyclisation step
[1] = late stage modification step, calculated as the acetate salt

PEPTIDE1{[dV].[NMeArg].G.D.[AMTC]}$PEPTIDE1,PEPTIDE1,1:R1-5:R2$$$V2.0
step yield (late stage modification step): 46%

6-(BOC-D-Val-NMeArg(Tos)-Gly-Asp(OCHX))Aminomethyl-2-pyridinecarboxylicacid
step yield (coupling step): 99% yield

PEPTIDE1{[dV].[NMeArg].G.D.[AMFur]}$PEPTIDE1,PEPTIDE1,1:R1-5:R2$$$V2.0
step yield [1]: 91%
step yield (late stage modification step, overall): overall yield 40%
step yield (purification step): 44% recovery

Cyclo(6-(D-Val-NMeArg(Tos)-Gly-Asp(OCHX)) Aminomethyl-2-pyridinecarboxylate)
cyclisation yield: 27%
step yield (late stage modification step): 96%

4'-Nitrobenzophenimino D-Val-N(Me)Arg(Tos)-Gly-Asp(CHX)-2-amino-4-thiazoleacetate trifluoroacetate salt
step yield (late stage modification step): 94%

H2 N-D-Val-MeArg(Tos)-Gly-Asp(Chx)-AMTC-Ox trifluoroacetate salt
step yield (late stage modification step): 68%

cyclo-(D-Val-N(Me)Arg(Tos)-Gly-Asp(CHX)-2-amino-4-thiazoleacetate)
cyclisation yield: 40%

Boc-D-Val-MeArg (Tos)-Gly-Asp (Chx)-AMTC-Ox
step yield (coupling step): 59%

PEPTIDE1{[dV].[NMeArg].G.D.[AMPic]}$PEPTIDE1,PEPTIDE1,1:R1-5:R2$$$V2.0
step yield [1]: 60%

cyclo-D-Val-MeArg(Tos)-Gly-Asp(Chx)-AMTC
cyclisation yield: 31%
